Measurements as given in patent publication US20210162000A1 (INSTITUT DE CARDIOLOGIE DE MONTREAL, published 2021).
No constants are given. Whether binding was seen depends on the method and setting. Binding seen in cells or lysates may run through a third protein. Some binding calls cover weakened binding; strength is not graded here.

Amino acid sequences for entries named in this document (tags omitted). A change or cut given only in a name is not applied to a line headed by its entry.
UniProt Q8NBP7: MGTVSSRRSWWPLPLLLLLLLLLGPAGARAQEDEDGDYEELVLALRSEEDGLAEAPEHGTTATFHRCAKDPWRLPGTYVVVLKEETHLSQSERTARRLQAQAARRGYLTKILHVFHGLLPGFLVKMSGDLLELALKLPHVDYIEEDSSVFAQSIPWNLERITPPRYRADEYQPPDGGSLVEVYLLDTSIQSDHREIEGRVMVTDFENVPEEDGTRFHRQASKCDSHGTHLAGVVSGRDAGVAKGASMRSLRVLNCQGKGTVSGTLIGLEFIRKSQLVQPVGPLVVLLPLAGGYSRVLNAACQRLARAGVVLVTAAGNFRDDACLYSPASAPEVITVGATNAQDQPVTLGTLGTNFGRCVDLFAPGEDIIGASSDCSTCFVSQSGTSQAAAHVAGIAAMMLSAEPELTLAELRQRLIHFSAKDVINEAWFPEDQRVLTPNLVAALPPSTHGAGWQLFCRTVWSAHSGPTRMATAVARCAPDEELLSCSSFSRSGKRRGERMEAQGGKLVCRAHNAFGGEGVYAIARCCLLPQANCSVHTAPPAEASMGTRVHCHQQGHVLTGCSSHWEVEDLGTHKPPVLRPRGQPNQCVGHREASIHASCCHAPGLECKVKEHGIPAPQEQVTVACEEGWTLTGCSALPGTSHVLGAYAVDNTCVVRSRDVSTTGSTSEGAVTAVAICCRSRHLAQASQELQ

B1: Recombinant SEQ ID NO 6, GRP94 CBD-CT (aa 652-799), His6 tag purified from E. coli (other)
chain: YGWSGNMERIMKAQAYQTGKDISTNYYASQKKTFEINPRHPLIRDMLRRIKEDEDDKTVLDLAVVLFETATLRSGYLLPDTKAYGDRIERMLRLSLNIDPDAKVEEEPEEEPEETAEDTTEDTEQDEDEEMDVGTDEEEETAKESTAE
notes: also called NO; 43; GRP94 CDB-CT domain; not shown: His6 tag from pET24b(+)

Tests used:
[1] = molecular target: Proprotein convertase subtilisin/kexin type 9 (PCSK9), endogenous in HepG2 and Huh-7 cells (human) (UniProt Q8NBP7); test: DSP cross-linking, IP with anti-PCSK9 polyclonal antibody from HepG2 cells, silver staining, LC-MS/MS
[2] = molecular target: Recombinant human PCSK9-V5-His6 (human) (UniProt Q8NBP7); test: in vitro competitive pull-down with PCSK9-V5-His6 and recombinant human LDLR ectodomain, immunoblot
[3] = molecular target: Recombinant human PCSK9-V5-His6 (human) (UniProt Q8NBP7); test: in vitro competitive pull-down: PCSK9-V5-His6 pre-incubated with SEQ ID NO 6, then LDLR ectodomain, mAb-V5 and A/G-agarose; immunoblot

Molecule | binding [1] | binding [2] | binding [3]
Glucose-regulated protein 94 (GRP94), endogenous (from UniProt P14625 22-803) | binds | – | –
B1 | – | binds | binds
